Measurements published in article PMC6401487.
Read-outs that look alike come from different tables or passages of the source. No constants are given. Whether binding was seen depends on the method and setting. In cells and extracts the contact can be indirect. A yes stands for co-enrichment or nearness to the bait. Other partners may have been found. For part of these data: A no says only that the protein was not detected with the bait. Where a sequence is shown, tags or fusion partners need not be part of it.

T1: Ferredoxin 1 (Fd-1), encoded by TK1694, with C-terminal HA-His6 extension (Thermococcus kodakarensis) (UniProt Q977X3)
T1 sequence: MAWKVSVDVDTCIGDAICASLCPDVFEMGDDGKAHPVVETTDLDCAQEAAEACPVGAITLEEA

T2: Ferredoxin 3 (Fd-3), encoded by TK2012, with C-terminal HA-His6 extension (Thermococcus kodakarensis) (UniProt Q5JDE8)
T2 sequence: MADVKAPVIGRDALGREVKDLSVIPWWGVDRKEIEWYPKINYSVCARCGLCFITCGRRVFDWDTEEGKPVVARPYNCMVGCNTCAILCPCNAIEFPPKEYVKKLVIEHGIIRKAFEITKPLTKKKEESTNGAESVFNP

T3: Ferredoxin 3 (Fd-3), encoded by TK2012, with C-terminal HA-His6 extension (Thermococcus kodakarensis), Q5JDE8
T3 chain: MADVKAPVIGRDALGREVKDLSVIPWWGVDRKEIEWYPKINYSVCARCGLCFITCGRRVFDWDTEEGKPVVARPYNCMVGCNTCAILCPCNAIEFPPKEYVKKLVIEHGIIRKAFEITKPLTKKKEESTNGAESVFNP


Tests used:
[1] = target: T1, Ferredoxin 1 (Fd-1), encoded by TK1694, with C-terminal HA-His6 extension (Thermococcus kodakarensis); experiment: affinity purification with mass spectrometry; C-terminally HA-His6-tagged Fd made from its own genomic locus; clarified lysates of cultures grown with S0 or without S0 (pyruvate); Ni2+-charged chelating column at 4 °C in 25 mM Tris-HCl pH 8.0, 500 mM NaCl, 10% glycerol; linear imidazole gradient; pooled Fd-containing fractions analysed by MuDPIT; proteins also found in equivalent fractions of parental strain TS559 subtracted
[2] = target: T2, Ferredoxin 3 (Fd-3), encoded by TK2012, with C-terminal HA-His6 extension (Thermococcus kodakarensis); experiment: as above
[3] = target: T2, Ferredoxin 3 (Fd-3), encoded by TK2012, with C-terminal HA-His6 extension (Thermococcus kodakarensis); experiment: as above; remark: listed apart in the source
[4] = target: T3, Ferredoxin 3 (Fd-3), encoded by TK2012, …; experiment: affinity purification with mass spectrometry; C-terminally HA-His6-tagged Fd made from its own genomic locus; clarified lysates of cultures grown with S0 or without S0 (pyruvate); Ni2+-charged chelating column at 4 °C in 25 mM Tris-HCl pH 8.0, 500 mM NaCl, 10% glycerol; linear imidazole gradient; pooled Fd-containing fractions analysed by MuDPIT; proteins also found in equivalent fractions of parental strain TS559 …; conditions: remark: other sources report otherwise
[5] = target: T3, Ferredoxin 3 (Fd-3), encoded by TK2012, …; experiment: as above; conditions: remark: other sources report otherwise

Row | Binder | binding [1] | binding [2] | other results
1 | Indolepyruvate:ferredoxin oxidoreductase, α subunit (protein, UniProt O07835 1-647) MAKVTDIVLWDKPGERVLLLGNHAIARGALEANIAVFAAYPGTPSSELTDTMAAVAKKAGVYMEYSTNEKVAFETALAAAWSGLRAMTAMKHVGLNVAADSFLSSVGMGVEGGFVIMVADDPSMWSSQNEQDTRVYAKFANVPVLEPSSPHEAKEMTKYAFELSEKFKHFVILRTTTRSSHARGDVVLGELPEEIKTGKRKFGKFKKDPTRFVDVPAHARKFHPLILEKIEKIREELNNCPFNWIEGKEDAKVGIIAPGLSYAYVKEALAWLGVEDVKILKLGTPFPVPYGLLGKFFDGLEKVLIVEELEPVVEEQVKTWAYDKGLRIPIHGKDLVPRVYEMTTRRAVEAIAKFLGLETPINFAEIDEKYEKVSQIVPPRPPSLCPACPHRNSFFAIRKAAGPKAIYPSDIGCYTLGVLPPLRTVDTTVAMGASIGIGHGLSIAMNGSLAEEEHKEGKEKQIIVATIGDSTFYHTGLPALANAIYNRSNVLIVVLDNLVTAMTGDQPNPGTGQTPHGMGKRIPIEDVAKAMGADFVAVVDPYDIKATYETIKKALEVEGVSVVVSRQVCALYKIGQMRRRGMKWPIYHVVEDKCTGCKICINAYGCPAIYWDPETKKAKVDPTMCWGCGGCAQVCPFDAFEPMKEGE | binds | – | binding [3]: no binding
2 | 2-Oxoacid:ferredoxin oxidoreductases, α subunit (protein, UniProt Q5JE85 1-396) MIIRGDEPEQIRLIKKLYKPGNYFMQGNEAVAYGAIFAGCRFYAGYPITPSSEIAETMARELPKLGGYYLQMEDEIGSIAAMVGASWTGLKVMTATAGPGFSLMQENLGYAVMTETPLVLVDVQRSGPSTGQATKGAQGDFFQARWGTHGDHPIIALSPTSGQDAFWEIIRAFNIAERLRTPVVMLFDGVLAHTRELVKIPDVEEVEITYRKLPQNEEEARLPFGDPHGDGVPPMPLFGHGYFTHVTGSTHKENGLRDVYTPEVHDRLVRRLHRKIEQNRHVYEKYEEYFTDDAEILVVSWGVTARPALGAVLKAREEGIKAGLFVPKTVHPFPGERMRALGKKVRAVLVPEMNLGQMILEVQRYVNDDVLLKGVNKIGGVPLTVNEILREIRGVA | – | – | binding [3]: no binding
3 | Peroxiredoxin (TK0537) (protein, UniProt Q5JF30 1-216) MVVIGEKFPEVEVKTTHGVIKLPDYFAEQGKWFVLFSHPADFTPVCTTEFYAMQKRVDQFRELGVEPIGLSVDQVFSHIKWMEWIKENLGEEITFPVIADDRGELADKLGMIPSGATITARAVFIVDDKGIIRAIVYYPAEVGRDWDEILRLVKALKVSDEKGVALPHKWPNNELIGDKAIVPPASTVDEVKQREEAKAKGEIECYDWWFCYKKLE | binds | binds | –
4 | Geranylgeranyl hydrogenase (protein, UniProt Q5JE27 1-395) MTWKYDVVVVGSGIAGPIVARNVAKAGFSVLLIDKKWAIGTPKQCAEAISIKVFDKYDIPYDKRFINREIYGAKLYSPSGYELEMRYKEVSGVILERKVFDKMLAYYAAKAGADVLARTEALDVIRKDGKIVGIKAKHEDEPVEIYADIIVAADGVESTIARKAGINTYAPPHEFDSGYEYEMLIEGFDPDLIHLWFGNEVAPRGYVWVFPKDEDRANVGIGINSDNPKTAKYYLDKWLEENNIPAKKLLEINVGLIPVGGFVKELAKDNVVVVGDAARQVNPMHGGGMAEAMEAGTIASKWIVKALEEENLSLLQNYTKEWWETDGKRLEKVLKVRRVTEKLTDEDLDLFIQILSGADAEKIASGDYAEVIKALLKHPKVLMSKRRLSLLKELL | no binding | – | –
5 | Geranylgeranyl hydrogenase, Q5JE27 1-395 (protein) MTWKYDVVVVGSGIAGPIVARNVAKAGFSVLLIDKKWAIGTPKQCAEAISIKVFDKYDIPYDKRFINREIYGAKLYSPSGYELEMRYKEVSGVILERKVFDKMLAYYAAKAGADVLARTEALDVIRKDGKIVGIKAKHEDEPVEIYADIIVAADGVESTIARKAGINTYAPPHEFDSGYEYEMLIEGFDPDLIHLWFGNEVAPRGYVWVFPKDEDRANVGIGINSDNPKTAKYYLDKWLEENNIPAKKLLEINVGLIPVGGFVKELAKDNVVVVGDAARQVNPMHGGGMAEAMEAGTIASKWIVKALEEENLSLLQNYTKEWWETDGKRLEKVLKVRRVTEKLTDEDLDLFIQILSGADAEKIASGDYAEVIKALLKHPKVLMSKRRLSLLKELL | – | – | binding [4]: no binding
6 | 2-Oxoacid:ferredoxin oxidoreductases, β subunit, Q5JE71 1-288 (protein) MAKEIYSRYPMVKYLRKEALPTALCPGCGGGTVLNAFANAVDQLRIDPKDLVVVSGIGCSAWIASPYFLADTLHTTHGRAIAFATGVKVGLPDKKVVVISGDGDLASIGGNHLIHAARRNIDITVILVNNMIYGMTGGQVAPTTPFGAKTTTTPYRNIEHPLQISETVAAAGASYVARWTTAHVYQLIESIKKALQVKGFSLVEVVSQCPVQFGRRNRMKEPAEMLRWFLKNSVPISKAKKMSPEELEDKFVIGEFVNRERPEFVSELNKLIDEVQEHFGLKGEDDGV | – | – | binding [5]: no binding

Second part, led by results:

Row | binding [1] | binding [2] | Binder | other results
7 | binds | binds | 2-Oxoisovalerate:ferredoxin oxidoreductase, β subunit (protein, UniProt Q5JIJ9 1-311) MEIPEQIKKKLTLPAEEHFYAGHTACQGCGAALGLRYVLKAYGRKTIFAIPACCSTIIAGAWPYNTLGANLFQTAFETTGAVLGGIEAALKARGIKVKGEDGVMIVGWAGDGGTADIGLQALSGFLERGHDALYIMYDNEAYMNTGIQRSSSTPYGAWTTNTPGGKRHFLEKRHKKKVIDIVIAHEIPYAATASVAYPEDFIRKLKTAQKTPGPSFIQLFAPCPTGWRSPTDKSIEIARLAVQTAYFPLFEYKEGKYRINMPNPKKEPKPIEEFLKLQGRFKYMTKEDIQVLQEWVLREWEKLKKLAEVFG | –
8 | binds | binds | 2-Oxoisovalerate ferredoxin oxidoreductase, δ subunit (protein, UniProt Q5JIK1 1-105) MNTLFGEKKAEAKKIVLTSVDQYPEAPISLGTTLSNFTGDWRTFIPVVNEDKCVKCYICWKFCPEPAIYIKPDGYVAIDYDYCKGCGICANECPTKAITMEKEEK | –
9 | binds | – | Indolepyruvate:ferredoxin oxidoreductase, β subunit (protein, UniProt O07836 1-202) MKEYNIVITGVGGQGILTAANLLGWAALRAGYKVRVGEVHGMSQRFGSVIAYVRFGEDVYGAMVPEGKADVILSFEPVEALRYINYLKKGGLVFTNARPIPPVQVSMGLATYPTLDEMKKIVEEDFGGKFMAFDAEKLAMEAGNIVTTNVVLIGALSQTPGFPLSEEQIKEVIRISVPPKTIDVNMRAFELGVKAAKEMLGL | binding [3]: no binding
10 | binds | binds | Pyruvate:ferredoxin oxidoreductase, α subunit (protein, UniProt Q5JIJ7 1-394) MPIRTVMKANEAAAWAAKLAKPKVIAAFPITPSTLVPEKISEFVANGELDAEFIKVESEHSAISACVGASAAGVRTFTATASQGLALMHEILFIAAGMRLPIVIAVGNRALSAPINIWNDWQDTISERDTGWLQFYAENNQEALDLILIAFKVAEDERVLLPAMVGFDAFILTHTVEPVEIPDQEVVDEFLGEYEPKHAYLDPERPITQGTLAFPAHYMEARYTVWEANENAKKVIDEVFAEFEKKFGRKYQKVEEYRTEDAEIIFVTMGSLAGTLKEYVDHLREKGLKVGAAKLTVYRPFPTEEVRELAKKAKVLALLEKNVTFSVGGALFQDFSRALVNLDERPKIVDFILGLGGRDVTFKDLDEALAIAQKALNGEEFDEVNWIGLRKEIL | –
11 | binds | binds | Pyruvate:ferredoxin oxidoreductase, δ subunit (protein, UniProt Q5JIJ8 1-105) MAESPFKADIERVQKEYSEKMTPGAIAYIPGSSVINKTGSWRVFMPEFNRDKCTRCYLCYIYCPEPAIYLDEEGYPVFDYDYCKGCGICANECPVDAIVMVRETK | –
12 | no binding | – | Ferredoxin 3 (Fd-3), encoded by TK2012, with C-terminal HA-His6 extension (protein, UniProt Q5JDE8 1-138) MADVKAPVIGRDALGREVKDLSVIPWWGVDRKEIEWYPKINYSVCARCGLCFITCGRRVFDWDTEEGKPVVARPYNCMVGCNTCAILCPCNAIEFPPKEYVKKLVIEHGIIRKAFEITKPLTKKKEESTNGAESVFNP | –
13 | binds | binds | 2-Oxoisovalerate ferredoxin oxidoreductase, γ subunit (protein, UniProt Q5JIK2 1-185) MIEIRFHGRGGQGAVTAANILASAAFKEGKYVQAFPFFGVERRGAPVTAFTRIDDKPIRIKTQIYEPDVVVVLDPSLLDTVDVTAGLKDGGIVIVNTEKSKEEVLEKLKKKPGKLALVDATGIALEILGLPITNTAILGAVAKATGLVKLESVQEAIKETFSGALGEKNAKAAEEAFNKTVVYEL | –
